{"sequences": {"note": "Chains of the proteins cited; added tags and fusions are not shown.", "UniProt Q8R4B8": "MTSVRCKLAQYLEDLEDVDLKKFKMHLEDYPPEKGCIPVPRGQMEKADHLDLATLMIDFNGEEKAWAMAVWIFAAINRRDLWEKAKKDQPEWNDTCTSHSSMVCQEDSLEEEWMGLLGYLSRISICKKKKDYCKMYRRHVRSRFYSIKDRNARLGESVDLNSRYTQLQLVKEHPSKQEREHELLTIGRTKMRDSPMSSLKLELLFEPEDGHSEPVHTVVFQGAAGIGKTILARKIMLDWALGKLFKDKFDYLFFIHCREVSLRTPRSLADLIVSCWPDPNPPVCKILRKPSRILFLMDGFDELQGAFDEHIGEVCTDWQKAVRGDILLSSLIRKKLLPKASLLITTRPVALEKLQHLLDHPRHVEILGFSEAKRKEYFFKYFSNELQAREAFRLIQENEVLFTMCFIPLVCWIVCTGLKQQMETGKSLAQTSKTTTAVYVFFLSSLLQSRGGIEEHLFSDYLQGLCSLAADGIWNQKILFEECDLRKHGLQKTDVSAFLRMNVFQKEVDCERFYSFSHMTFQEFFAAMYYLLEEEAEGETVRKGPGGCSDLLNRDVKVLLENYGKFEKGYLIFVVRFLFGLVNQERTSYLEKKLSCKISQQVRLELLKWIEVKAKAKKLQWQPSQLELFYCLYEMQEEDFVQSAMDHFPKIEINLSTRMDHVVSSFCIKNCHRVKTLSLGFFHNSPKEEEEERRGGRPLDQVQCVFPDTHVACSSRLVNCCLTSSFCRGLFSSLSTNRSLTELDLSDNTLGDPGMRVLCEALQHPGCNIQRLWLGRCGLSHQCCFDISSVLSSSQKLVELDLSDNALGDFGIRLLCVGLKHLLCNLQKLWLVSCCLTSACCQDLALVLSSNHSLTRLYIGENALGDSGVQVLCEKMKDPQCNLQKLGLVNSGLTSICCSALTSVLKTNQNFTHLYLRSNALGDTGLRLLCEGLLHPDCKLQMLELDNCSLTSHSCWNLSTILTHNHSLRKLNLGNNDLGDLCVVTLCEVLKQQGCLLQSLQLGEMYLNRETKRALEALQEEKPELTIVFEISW"}, "source": "paper PMC12450706", "binders": {"B1": {"name": "DJ-1 (protein, UniProt Q99LX0 1-189)", "chain": "MASKRALVILAKGAEEMETVIPVDVMRRAGIKVTVAGLAGKDPVQCSRDVMICPDTSLEDAKTQGPYDVVVLPGGNLGAQNLSESPMVKEILKEQESRKGLIAAICAGPTALLAHEVGFGCKVTTHPLAKDKMMNGSHYSYSESRVEKDGLILTSRGPGTSFEFALAIVEALVGKDMANQVKAPLVLKD"}}, "key": {"[1]": {"biological_target": "NOD-like receptor family pyrin domain-containing 3 (NLRP3) (mouse (endogenous in primary microglia)) (UniProt Q8R4B8)", "experiment": "proximity ligation; Duolink PLA in fixed, permeabilised microglial cells after inflammatory stimulation; rabbit anti-DJ-1 and mouse anti-NLRP3 primary antibodies; confocal microscopy"}, "[2]": {"biological_target": "NOD-like receptor family pyrin domain-containing 3 (NLRP3) (mouse (endogenous in primary microglia)) (UniProt Q8R4B8)", "experiment": "co-IP; primary microglia stimulated with 100 ng/ml LPS for 7.5 h and 5 mM ATP for 0.5 h; lysed in RIPA buffer (50 mM Tris-HCl pH 7.4, 150 mM NaCl, 1% NP-40); 500 ug protein with anti-DJ-1 or anti-NLRP3 antibody overnight at 4 C, Protein A/G agarose; blotted for the other protein"}}, "note": "These are yes or no findings as the source states them, for the method shown. In cells and extracts the contact can be indirect. Some entries that bind do so weakly or less than the wild type."}
{"binder": "B1", "values": [{"measurement": "binding", "setting": "[1]", "result": "binds"}, {"measurement": "binding", "setting": "[2]", "result": "binds"}]}
